The list does not hold the whole screen: it gathers tests that were run many times, whatever their T/C, doses with no T/C, and many T/C values between a quarter and a half above the control. Further doses and runs are listed elsewhere. T/C: endpoint of the treated group in % of that of the vehicle group. Some doses have a count of surviving animals in place of a T/C: the source holds a T/C of zero for them, seemingly a mark for toxic or unscored doses. Some doses without a T/C left all or most animals alive at the check, yet need not have been tolerated: the source hardly ever lists a survival T/C far under the control, and the zero likely stands for such cases as well. Counts of survivors are from the toxicity check (mostly the fifth day) where no day follows; animals may have died later. Schedules are NCI's codes, read here as Q, the interval in days (D) or hours (H), X, the number of doses. Where survival is the endpoint, the PubChem record calls one and a half times the control and up active, and a quarter to a half above the control has no call in these data; cut-offs in other NCI protocols can differ. Some T/C values carry the count of animals alive at the toxicity check (mostly the fifth day); where none is given, no animal had died by that day.
Test system: L1210 leukemia ip in BDF1 mice, survival T/C
Assay: NCI In Vivo Anticancer Drug Screen. Data for tumor model L1210 Leukemia (intraperitoneal) in B6D2F1 (BDF1) mice
Details: T/C endpoint: mean survival time, higher T/C = longer survival
[1] = dose: 400.0 mg/kg/injection, schedule: Q01DX001 (ip), vehicle: saline
[2] = dose: 400.0 mg/kg/injection, schedule: Q01DX009 (ip), vehicle: Klucel (hydroxypropylcellulose) (HPC)
[3] = dose: 300.0 mg/kg/injection, schedule: Q01DX001 (ip), vehicle: saline
[4] = dose: 400.0 mg/kg/injection, schedule: Q01DX009 (ip), vehicle: saline with Tween-80
[5] = dose: 200.0 mg/kg/injection, schedule: Q04DX003 (ip), vehicle: saline
[6] = dose: 400.0 mg/kg/injection, schedule: Q04DX003 (ip), vehicle: saline
[7] = dose: 400.0 mg/kg/injection, schedule: Q01DX001 (ip), vehicle: carboxymethylcellulose (CMC)
[8] = dose: 200.0 mg/kg/injection, schedule: Q04DX003 (ip), vehicle: saline with Tween-80
[9] = dose: 400.0 mg/kg/injection, schedule: Q04DX003 (ip), vehicle: saline with Tween-80

O=C(O)C(Br)CO (stereo not given) (tested in a mixture with another compound)
survivor count (dose: 400.0 mg/kg/injection, schedule: Q01DX001 (ip), vehicle: acetone): 2 of 6

BrC1CCCCC1Br (stereo not given)
survivor count [1]: 2 of 4

COC(=O)/C=C1/Nc2cc(Cl)c(OC)cc2C(=O)NC1=O
survivor count (dose: 300.0 mg/kg/injection, schedule: Q04DX003 (ip), vehicle: other): 5 of 6

COc1cc(NCCCNc2c3ccc(Cl)cc3nc3ccc(OC)cc23)c2ncccc2c1
survivor count (dose: 200.0 mg/kg/injection, schedule: Q01DX009 (ip), vehicle: Klucel (hydroxypropylcellulose) (HPC)): 4 of 6 | survivor count [2]: 0 of 6

O=C(C=C(C(F)(F)F)C(F)(F)F)c1c2ccccc2cc2ccccc12
survivor count (dose: 0.75 mg/kg/injection, schedule: Q01DX009 (ip), vehicle: DMSO): 6 of 6 | survivor count (dose: 6.0 mg/kg/injection, schedule: Q01DX009 (ip), vehicle: DMSO): 5 of 6 | survivor count (dose: 12.0 mg/kg/injection, schedule: Q01DX009 (ip), vehicle: DMSO): 5 of 6 | survivor count (dose: 25.0 mg/kg/injection, schedule: Q04DX003 (ip), vehicle: DMSO): 5 of 6 | survivor count (dose: 50.0 mg/kg/injection, schedule: Q04DX003 (ip), vehicle: DMSO): 0 of 6 | survivor count (dose: 100.0 mg/kg/injection, schedule: Q04DX003 (ip), vehicle: DMSO): 2 of 6 | survivor count (dose: 200.0 mg/kg/injection, schedule: Q04DX003 (ip), vehicle: DMSO): 0 of 6 | survivor count (dose: 400.0 mg/kg/injection, schedule: Q04DX003 (ip), vehicle: DMSO): 0 of 6

C/C(=N/OC(=O)N(C)C)c1cccc(Cl)c1
T/C (dose: 100.0 mg/kg/injection, schedule: Q01DX001 (ip), vehicle: saline): 139 % of control [5 of 6 alive]

O=c1oc2ccccc2c(Cl)c1Cl
survivor count (dose: 20.0 mg/kg/injection, schedule: Q01DX001 (ip), vehicle: saline): 3 of 6 | survivor count (dose: 40.0 mg/kg/injection, schedule: Q01DX001 (ip), vehicle: saline): 1 of 6 | survivor count (dose: 75.0 mg/kg/injection, schedule: Q01DX001 (ip), vehicle: saline): 0 of 6 | survivor count (dose: 150.0 mg/kg/injection, schedule: Q01DX001 (ip), vehicle: saline): 0 of 6 | survivor count [3]: 0 of 6

CN1CC(CO)=CC2c3cccc4[nH]cc(c34)CC21 (stereo not given)
survivor count (dose: 200.0 mg/kg/injection, schedule: Q01DX001 (ip), vehicle: saline): 1 of 4 | survivor count [1]: 1 of 4

O=C(O)C1C(c2c3ccc(=O)c(O)c-3oc3c(O)c(O)ccc23)C2(Cl)C(Cl)=C(Cl)C1(Cl)C2(Cl)Cl (stereo not given)
survivor count (dose: 200.0 mg/kg/injection, schedule: Q01DX009 (ip), vehicle: alcohol): 6 of 6 | survivor count (dose: 400.0 mg/kg/injection, schedule: Q04DX003 (ip), vehicle: alcohol): 2 of 6

NNC(=O)Cc1ccc([N+](=O)[O-])cc1
survivor count [1]: 3 of 6

O=C1CCCCCCCS(=O)(=O)C1
survivor count (dose: 300.0 mg/kg/injection, schedule: Q01DX001 (ip), vehicle: carboxymethylcellulose (CMC)): 0 of 6

COc1ccc(/C=N\O)cc1OC
survivor count [4]: 2 of 6

C#CCO
survivor count (dose: 100.0 mg/kg/injection, schedule: Q04DX003 (ip), vehicle: saline): 0 of 6 | survivor count [5]: 0 of 6 | survivor count [6]: 0 of 6

O=C1NCCc2c1sc1ccccc21
survivor count (dose: 200.0 mg/kg/injection, schedule: Q01DX001 (ip), vehicle: carboxymethylcellulose (CMC)): 4 of 4

CCOP(=O)(/C=C/NC1CCCCC1)OCC
survivor count [1]: 3 of 6

Cc1cc(=O)c2ccccc2[nH]1
survivor count [5]: 3 of 6 | survivor count [6]: 0 of 6

O=C(O)C1C2C=CC(C2)C1(C(=O)O)c1ccccc1 (stereo not given)
survivor count [7]: 2 of 6 | survivor count (dose: 400.0 mg/kg/injection, schedule: Q04DX003 (ip), vehicle: carboxymethylcellulose (CMC)): 1 of 6

ClC1=C(Cl)C2(Cl)CC1(Cl)C1OC12 (stereo not given)
survivor count (dose: 100.0 mg/kg/injection, schedule: Q01DX009 (ip), vehicle: other): 0 of 6 | survivor count (dose: 200.0 mg/kg/injection, schedule: Q01DX009 (ip), vehicle: other): 0 of 6 | survivor count (dose: 400.0 mg/kg/injection, schedule: Q01DX009 (ip), vehicle: other): 0 of 6

CCOC(=O)CCC(NC(=O)c1ccc(N(C)C(=O)OCc2ccccc2)cc1)C(=O)OCC (stereo not given)
survivor count (dose: 100.0 mg/kg/injection, schedule: Q01DX001 (ip), vehicle: carboxymethylcellulose (CMC)): 6 of 6

COC(=O)c1ccc[n+](Cc2c(Cl)cccc2Cl)c1
survivor count [3]: 2 of 6

NC(=S)N/N=C/c1c[nH]c2ccccc12
survivor count [2]: 0 of 6

Nc1ccc([N+](=O)[O-])cc1C(O)(C(F)(F)F)C(F)(F)F (tested in a mixture with another compound)
survivor count [4]: 5 of 6

O=C(/C=C/c1ccc(Cl)c(Cl)c1)c1ccc(Cl)cc1
survivor count (dose: 50.0 mg/kg/injection, schedule: Q04DX003 (ip), vehicle: saline with Tween-80): 6 of 6 | survivor count [8]: 6 of 6 | survivor count [9]: 6 of 6

Cn1ccc(=O)c2cc([N+](=O)[O-])ccc21
survivor count (dose: 400.0 mg/kg/injection, schedule: Q01DX009 (ip), vehicle: water): 2 of 6 | survivor count [9]: 1 of 3

CC(=O)Oc1cccc2c1C(=O)OC2=O
survivor count (dose: 400.0 mg/kg/injection, schedule: Q01DX001 (ip), vehicle: saline with Tween-80): 3 of 6

O=Cc1cccc(CC(O)(C(F)(F)F)C(F)(F)F)n1
survivor count (dose: 100.0 mg/kg/injection, schedule: Q01DX009 (ip), vehicle: saline with Tween-80): 3 of 6 | survivor count (dose: 200.0 mg/kg/injection, schedule: Q01DX009 (ip), vehicle: saline with Tween-80): 3 of 6 | survivor count [9]: 0 of 6

CC(=O)OCC1OC(N2C(=O)/C(=C/c3cccnc3)SC2=S)C(OC(C)=O)C(OC(C)=O)C1OC(C)=O (stereo not given)
survivor count (dose: 400.0 mg/kg/injection, schedule: Q01DX005 (ip), vehicle: other): 0 of 6

CC(=O)c1c(O)cc(O)cc1-c1cc(=O)c2c(O)ccc(C(C)=O)c2o1
survivor count [7]: 2 of 4

CC1CC(C)(C)N=C(C(Cc2ccccc2)CC(O)c2ccccc2)O1 (stereo not given)
survivor count [8]: 6 of 6 | survivor count [9]: 0 of 6

O=[N+]([O-])c1ccc(N/N=C(\Oc2ccccc2)c2ccc([N+](=O)[O-])cc2)cc1
survivor count [9]: 4 of 4

Cc1ccc(NC(=O)COc2ccc(C)cc2C)cc1
survivor count (dose: 400.0 mg/kg/injection, schedule: Q04DX002 (ip), vehicle: gum acacia): 3 of 3

Cc1ccc(N=Nc2ccc(C)cc2NC(=O)Nc2cc(C)ccc2C)cc1
survivor count (dose: 200.0 mg/kg/injection, schedule: Q04DX002 (ip), vehicle: saline with Tween-80): 6 of 6

CCCCNC(=O)C1CC2c3c(Br)ccc4c3C(CC2N(C)C1)CN4C(C)=O (stereo not given)
survivor count (dose: 40.0 mg/kg/injection, schedule: Q01DX001 (ip), vehicle: Klucel (hydroxypropylcellulose) (HPC)): 0 of 6 | survivor count (dose: 80.0 mg/kg/injection, schedule: Q01DX001 (ip), vehicle: Klucel (hydroxypropylcellulose) (HPC)): 1 of 6 | survivor count (dose: 100.0 mg/kg/injection, schedule: Q01DX001 (ip), vehicle: Klucel (hydroxypropylcellulose) (HPC)): 0 of 6 | survivor count (dose: 200.0 mg/kg/injection, schedule: Q01DX001 (ip), vehicle: Klucel (hydroxypropylcellulose) (HPC)): 0 of 6 | survivor count (dose: 400.0 mg/kg/injection, schedule: Q01DX001 (ip), vehicle: Klucel (hydroxypropylcellulose) (HPC)): 0 of 6

O=C(O)c1cccc2c1-c1ccc(Cl)cc1C2
survivor count (dose: 400.0 mg/kg/injection, schedule: Q04DX003 (ip), vehicle: Klucel (hydroxypropylcellulose) (HPC)): 0 of 6

CCNCCCNCC
survivor count [3]: 1 of 6

— PubChem BioAssay AID248 (DTP/NCI, 2004)
